Test results from the supplement of paper PMC12889115.
Some of the results follow. Values are raw readings; no control value is given beside them.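 Primary screen: polymyxin B was added at a level permeabilizing Salmonella outer membranes while sparing inner membranes. DMSO wells, both with and without polymyxin B, established maximum growth. Plate-to-plate variation meant each plate was ranked on its own, and the lowest-OD600 compounds were selected as hits.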

Test system: Salmonella enterica serovar Typhimurium SL1344
Test: bacterial growth OD600 after 18 h with compound and polymyxin B; higher = more bacterial growth (less inhibition)
Details: 50 µM, Mueller-Hinton broth

SMILES	bacterial growth OD600 (polymyxin B 1 µg/mL)	bacterial growth OD600 (polymyxin B 0.75 µg/mL)
O=C(Cc1cccc(F)c1)NC1CC(=O)N(Cc2ccc(F)cc2)C1 (stereo not given)	0.88	–
COCCN1CCN(C(=O)c2cnn(-c3nccc(-c4ccccc4OC)n3)c2C2CC2)CC1	–	0.854
CC(C)NC(=O)C1CCCN(C2CCN(Cc3ccccc3)CC2)C1 (stereo not given)	–	0.868
O=C1CCCN1CCCC(=O)N1CCCC(N2CCN(c3cccc(Cl)c3)CC2)C1 (stereo not given)	0.945	–
C=CCNC(=O)c1coc(COc2ccc(F)cc2)n1	0.987	–
O=C(CCc1ccncc1)N1CCCC(CCc2ccccc2F)C1 (stereo not given)	–	0.004
CCOC(=O)C1(Cc2ccc(F)cc2)CCCN(C(=O)c2sccc2C)C1 (stereo not given)	0.333	–
COc1ccc(C(=O)N2CCC(C3CCN(c4ncccn4)CC3)C2)o1 (stereo not given)	–	0.958
Cc1cc(C)n(CCNC2CCN(c3ccc(C(=O)N4CCOCC4)cc3)CC2)n1	–	0.909
O=C(NCc1cccnc1)C1CCN(C2CCN(CC3CCCC3)CC2)CC1	0.859	–
CC(C)c1ccc(CN2CCCC3(CCN(S(C)(=O)=O)C3)C2=O)cc1 (stereo not given)	0.876	–
COc1ccc(CN2CCN(Cc3cnn(C(C)C)c3)CC2CCO)c(F)c1 (stereo not given)	0.873	–
CCOc1ccccc1N1CCN(C(=O)CCC2(Cc3ccc(OC)cc3F)CCC(=O)N2)CC1 (stereo not given)	–	0.822
COc1ccc(/C=C/CN2CCCC(CCC(=O)N(C)C3CCN(C)CC3)C2)cc1 (stereo not given)	1.05	–
COc1ccc(CC(=O)NCCN2Cc3ccccc3OC(c3ccccc3OC)C2)cc1OC (stereo not given)	–	0.791
O=C(CC(c1ccc(O)cc1)c1cccc(O)c1)NC1CCC1 (stereo not given)	1.08	–
CCOCCCNC(=O)c1cc(OC)ccc1OC1CCN(C2CCCC2)CC1	1.25	–
O=C(/C=C/c1ccccc1)N1CC[C@@H](N2CCN(CCc3ccccc3)CC2)[C@H](O)C1	–	0.758
CO[C@H]1[C@H](NC(=O)c2cccc(F)c2)c2ccccc2C12CCN(Cc1ccsc1)CC2	–	0.828
Cc1oc(-c2cccc(NC(=O)CCc3cccnc3)c2)nc1CNC(=O)C1CC=CCC1 (stereo not given)	–	0.734
OCCOc1cccc(CN2Cc3ccccc3OC(c3ccccc3F)C2)c1 (stereo not given)	–	-0.003
CCN1CCN(C2(C(=O)N[C@@H](CC(C)C)C(=O)OC)Cc3ccccc3C2)CC1	–	0.851
COCC1CCCCN1C(=O)c1csc2nc(-c3cccc(Cl)c3)cn12 (stereo not given)	–	0.003
CC(C)c1nc(CNC(=O)c2ccc(N(C)Cc3ccc(F)cc3)nc2)no1	0.852	–
CCN1CCN(C2(C(=O)N3CCC(COC)CC3)Cc3ccccc3C2)CC1	–	0.905
O=C(Nc1ccc(-n2cccn2)cc1)C1CCCN1Cc1ccc2c(c1)CCO2 (stereo not given)	–	0.948
CCC1(CCC(=O)NC(Cc2ccccc2)c2ccccc2)CCC(=O)N1 (stereo not given)	–	0.866
CN(Cc1nc(-c2cccs2)no1)C1CCCc2ccccc21 (stereo not given)	0.886	–
Cc1c(CC(=O)NCC2CC2)c2c(n1CCc1ccccc1)CCCC2=O	0.586	–
CC1CN(CCC(=O)NCCCOc2cccnc2)Cc2cc(Cl)ccc2O1 (stereo not given)	–	0.775

No new results follow: entries from further up.
SMILES	bacterial growth OD600 (polymyxin B 1 µg/mL)	bacterial growth OD600 (polymyxin B 0.75 µg/mL)
O=C1CCCN1CCCC(=O)N1CCCC(N2CCN(c3cccc(Cl)c3)CC2)C1 (stereo not given)	0.945	–
C=CCNC(=O)c1coc(COc2ccc(F)cc2)n1	0.987	–
